The full ranking holds about 33,000 sequences; the median of “E-score (-0.5 to 0.5)” is about -0.016, and the highest 2% start at about 0.3. The list shows a part of the results.
biological target: T1, Yer184c (UniProt P39961); test: PBM E-score (8-mer binding enrichment) (E-score (-0.5 to 0.5)); higher = stronger / more preferred TF binding; settings: protein concentration: 100 nM; construct: GST-full length
T1 sequence: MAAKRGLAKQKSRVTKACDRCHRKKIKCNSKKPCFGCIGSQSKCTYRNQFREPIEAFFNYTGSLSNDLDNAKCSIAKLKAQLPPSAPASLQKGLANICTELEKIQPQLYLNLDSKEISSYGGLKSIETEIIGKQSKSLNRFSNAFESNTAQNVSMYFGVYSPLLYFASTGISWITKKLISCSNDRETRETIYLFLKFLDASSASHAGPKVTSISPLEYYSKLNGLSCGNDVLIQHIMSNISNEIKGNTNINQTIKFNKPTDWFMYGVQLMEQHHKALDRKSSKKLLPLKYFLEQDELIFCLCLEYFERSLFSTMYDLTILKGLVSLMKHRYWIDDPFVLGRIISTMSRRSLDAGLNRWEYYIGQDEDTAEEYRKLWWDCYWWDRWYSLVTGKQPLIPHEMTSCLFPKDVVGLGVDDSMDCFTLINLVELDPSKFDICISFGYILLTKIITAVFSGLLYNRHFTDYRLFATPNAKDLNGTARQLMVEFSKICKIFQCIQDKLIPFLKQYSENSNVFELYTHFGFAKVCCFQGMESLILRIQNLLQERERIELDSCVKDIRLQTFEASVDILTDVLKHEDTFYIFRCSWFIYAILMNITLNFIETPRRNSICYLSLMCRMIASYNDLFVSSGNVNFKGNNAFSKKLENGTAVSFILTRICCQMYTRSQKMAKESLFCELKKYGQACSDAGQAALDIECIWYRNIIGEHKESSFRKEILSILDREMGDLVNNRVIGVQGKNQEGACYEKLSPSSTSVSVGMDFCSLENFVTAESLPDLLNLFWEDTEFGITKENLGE
Description: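 Universal 'all 10-mer' protein binding microarrays (Agilent AMADID 015681) probed with GST-tagged S. cerevisiae TFs (full-length or DBD) made by in vitro transcription/translation (PURExpress), about 100-200 nM. Bound TF was detected with fluorescent anti-GST. Each ungapped 8-mer (which stands for itself and its reverse complement) is scored by the PBM enrichment score (E-score), a modified Wilcoxon-Mann-Whitney statistic from -0.5 to +0.5, computed with the Universal PBM Analysis Suite. Scale: above 0.35 generally sequence-specific binding.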

Compared with GGAAACTA, ATTTCGCG is higher in “PBM E-score” value: 0.0665 for the first, 0.259 for the second.

Going from AACTCTGC to CGAGGCAG, the “PBM E-score” value rises from -0.213 to -0.0339.

Going from ATTTCAAC to TCATGCGA, the “PBM E-score” value falls from 0.167 to 0.00425.

Compared with CGTGGTCC, CCTATGAC is lower in “PBM E-score” value: -0.0982 for the first, -0.242 for the second.

Compared with AAAATGCT, GGAGTTAA is lower in “PBM E-score” value: 0.106 for the first, 0.0757 for the second.

Compared with ATCAGTGA, CGATGTCC is higher in “PBM E-score” value: -0.0339 for the first, 0.15 for the second.

Compared with CTGGCGAA, CCACAGGG is lower in “PBM E-score” value: -0.131 for the first, -0.326 for the second.

First: AAGTCGAG
Second: AGAAGGTA
The “PBM E-score” value of the first is lower: -0.158 for the first, 0.0854 for the second.

Compared with AGTTGAGC, ATCTCGTG is higher in “PBM E-score” value: -0.12 for the first, -0.103 for the second.

Compared with ATTCCCCC, TGGTTTAA is higher in “PBM E-score” value: -0.2 for the first, 0.0779 for the second.

Compared with CACGCCCC, ATACGCAG is higher in “PBM E-score” value: -0.191 for the first, -0.155 for the second.

Compared with ATCACTCC, GTGCAGTA is higher in “PBM E-score” value: -0.0246 for the first, 0.0537 for the second.

Compared with GAGCTGGA, GCCAACAC is higher in “PBM E-score” value: -0.0682 for the first, 0.0745 for the second.

Compared with CAATCTTC, CCCGTACA is lower in “PBM E-score” value: 0.151 for the first, -0.271 for the second.

Compared with ACGCTTCT, GATAGCTA is higher in “PBM E-score” value: -0.125 for the first, -0.0392 for the second.

Going from CGACTGAC to GTACCAGA, the “PBM E-score” value rises from -0.187 to -0.104.

Going from CAAATATC to CCGCGCAA, the “PBM E-score” value falls from 0.223 to 0.0053.

Going from CGATTCGA to AATGCCCC, the “PBM E-score” value falls from 0.181 to -0.229.

Going from ACACTAGT to ATGGCTTG, the “PBM E-score” value falls from -0.0708 to -0.123.

Going from ATTTACTG to AATTGGGA, the “PBM E-score” value falls from 0.105 to 0.0601.

Compared with AACCTGTG, TAACGCTA is higher in “PBM E-score” value: -0.147 for the first, -0.118 for the second.

Going from AACAATGT to AGATAGCG, the “PBM E-score” value falls from 0.146 to -0.141.

First: AACGACCG
Second: AGTAAATA
The “PBM E-score” value of the first is lower: 0.0091 for the first, 0.167 for the second.

Compared with ATCTCTGC, GTTTGCAA is higher in “PBM E-score” value: -0.00621 for the first, 0.165 for the second.

Going from AGGTTGTC to CGACGCTC, the “PBM E-score” value rises from -0.228 to 0.0205.

Compared with ACGCTGTC, AAGGCCTC is lower in “PBM E-score” value: -0.159 for the first, -0.212 for the second.

First: ATATTTTC
Second: ACTCAAGA
The “PBM E-score” value of the first is higher: 0.202 for the first, -0.17 for the second.

Going from CTGCACAC to CTGGGCCC, the “PBM E-score” value rises from -0.207 to -0.166.

Compared with CCTAGTCG, CTACGAGC is lower in “PBM E-score” value: -0.181 for the first, -0.197 for the second.

First: AACTTGGG
Second: GACCGCCA
The “PBM E-score” value of the first is lower: -0.171 for the first, -0.12 for the second.

Going from CGTGAGTA to AAGCTCGC, the “PBM E-score” value rises from 0.0198 to 0.0328.

Going from CACCACCC to CAACCGCA, the “PBM E-score” value rises from -0.132 to 0.0386.

Going from ATGATCTC to CGTACTTA, the “PBM E-score” value falls from -0.0245 to -0.058.

First: CACTCTGG
Second: AGCCAATA
The “PBM E-score” value of the first is higher: -0.0982 for the first, -0.128 for the second.

Going from AAATAGTC to GAGAAGGC, the “PBM E-score” value falls from -0.0425 to -0.147.

Going from CGAGGTGA to GGAATCTA, the “PBM E-score” value falls from 0.15 to 0.056.

First: CCATGGGG
Second: CACTCCCC
The “PBM E-score” value of the first is lower: -0.194 for the first, -0.0415 for the second.

Compared with AAGCTAAC, ATATTGAG is higher in “PBM E-score” value: -0.0155 for the first, 0.0479 for the second.

Going from CTCCCTGA to CACCAAAG, the “PBM E-score” value rises from -0.32 to 0.0906.

Going from CTACCTGA to AATTGCCT, the “PBM E-score” value rises from -0.114 to 0.0752.

Going from CCGTCTTC to AGACCCAT, the “PBM E-score” value falls from 0.0628 to -0.227.

Compared with ACGGAGAA, CGGGAGCA is lower in “PBM E-score” value: 0.171 for the first, 0.0569 for the second.

Compared with CACTTTGC, GGTGCAGA is lower in “PBM E-score” value: 0.0883 for the first, -0.206 for the second.

First: ATGAACCC
Second: TATGTCCA
The “PBM E-score” value of the first is higher: 0.0487 for the first, -0.102 for the second.

Going from GCAGCAAC to AGCGCTGG, the “PBM E-score” value falls from 0.153 to -0.0341.

Compared with AGGCCGAT, AACTTCCA is lower in “PBM E-score” value: 0.184 for the first, 0.0737 for the second.

First: AATCCATT
Second: CAATTTCC
The “PBM E-score” value of the first is lower: 0.186 for the first, 0.189 for the second.

First: ATACATCC
Second: GATGCAGC
The “PBM E-score” value of the first is higher: 0.069 for the first, 0.0471 for the second.

First: CAACTAGG
Second: ATTACAAA
The “PBM E-score” value of the first is lower: -0.0391 for the first, 0.161 for the second.

Compared with TCACCACA, CAGGTATC is lower in “PBM E-score” value: 0.00117 for the first, -0.00191 for the second.

Compared with AACAATAC, CATTTTTC is higher in “PBM E-score” value: 0.0929 for the first, 0.194 for the second.

Going from CTTCGCAC to TGGAACAA, the “PBM E-score” value rises from -0.0518 to 0.195.

Compared with AATGCGCA, AGTTACGG is lower in “PBM E-score” value: 0.208 for the first, 0.0354 for the second.

Going from GTCTCATA to GTGCGTAA, the “PBM E-score” value falls from -0.0146 to -0.0289.

Compared with ACAAGAGC, CAGACAGC is lower in “PBM E-score” value: -0.0386 for the first, -0.102 for the second.

Compared with ATGTATTG, AATTCCTG is lower in “PBM E-score” value: 0.14 for the first, -0.118 for the second.

Compared with AAATCGAG, ACCAGGGG is lower in “PBM E-score” value: 0.103 for the first, -0.349 for the second.

First: ACTAATAC
Second: CCATGTAC
The “PBM E-score” value of the first is higher: 0.262 for the first, -0.139 for the second.

Compared with CGGCCTTC, GGTTTGTA is lower in “PBM E-score” value: 0.33 for the first, 0.0405 for the second.

First: CGCTGCAC
Second: GCCGTAAC
The “PBM E-score” value of the first is lower: -0.175 for the first, 0.111 for the second.

First: CTGTTAAA
Second: CAAGCCAC
The “PBM E-score” value of the first is higher: -0.0216 for the first, -0.396 for the second.

Going from AGACCCTA to AAATACGC, the “PBM E-score” value rises from -0.199 to 0.0781.

First: AAGTCTTC
Second: ATTCAGCG
The “PBM E-score” value of the first is lower: -0.0968 for the first, 0.0517 for the second.

Going from CGGCACAA to AAATCCGC, the “PBM E-score” value falls from 0.177 to -0.00733.

Compared with GACCCACA, AGATGTTC is lower in “PBM E-score” value: 0.0155 for the first, 0.00961 for the second.

First: ACAATTCG
Second: ATACGAAA
The “PBM E-score” value of the first is lower: 0.093 for the first, 0.188 for the second.

Compared with CCGCCCGA, TCGAATCA is lower in “PBM E-score” value: 0.148 for the first, -0.0385 for the second.

Compared with GCCCACAA, ACGGCACC is higher in “PBM E-score” value: -0.13 for the first, -0.0473 for the second.

Compared with CATTCCTA, ACTCCTTA is lower in “PBM E-score” value: -0.098 for the first, -0.154 for the second.

Compared with AAGTATAA, CAATGGCG is lower in “PBM E-score” value: 0.0494 for the first, -0.0265 for the second.

Going from TCGAGGCA to AGCTCGAA, the “PBM E-score” value rises from 0.0664 to 0.178.

Compared with TCATTCCA, GTGCCGCA is higher in “PBM E-score” value: -0.0133 for the first, 0.232 for the second.

Compared with CAGCCGGA, AATACTGC is lower in “PBM E-score” value: 0.392 for the first, 0.0826 for the second.

Going from CAGCGGTA to CATAGAAG, the “PBM E-score” value rises from 0.0738 to 0.107.

First: ACGCCGCA
Second: TCCCTCCA
The “PBM E-score” value of the first is higher: 0.0659 for the first, -0.214 for the second.

Going from AGCCTAGA to CGTAGGGC, the “PBM E-score” value falls from -0.133 to -0.264.

Compared with AATTGACA, GAAATGGC is lower in “PBM E-score” value: 0.0558 for the first, -0.114 for the second.

Going from AAAAGCGC to CAGTTACC, the “PBM E-score” value falls from 0.111 to -0.0418.

Going from ACGGGACT to GATAAATC, the “PBM E-score” value rises from -0.0211 to 0.238.

Compared with ACCTAAGT, AACTAACC is higher in “PBM E-score” value: 0.101 for the first, 0.256 for the second.

First: ATTGTCAA
Second: CGAGAGCC
The “PBM E-score” value of the first is higher: -0.0116 for the first, -0.151 for the second.

Going from GACTCCCC to GCGGCGTA, the “PBM E-score” value rises from -0.236 to -0.0609.

Compared with AACCCCAC, CAAGCACG is higher in “PBM E-score” value: -0.352 for the first, -0.00337 for the second.

First: AACCCCAT
Second: ACCGTCAT
The “PBM E-score” value of the first is lower: -0.129 for the first, -0.0508 for the second.

Compared with ACCACTAG, CCTCGACG is higher in “PBM E-score” value: -0.229 for the first, -0.0343 for the second.

Compared with CGGCCCAG, AACCTTGT is lower in “PBM E-score” value: 0.225 for the first, -0.322 for the second.

— the supplement of paper PMC3334620
